Laboratory results published in patent US9932333B2, “Benzothiazole compound and medicine containing same” (JAPAN SCIENCE AND TECHNOLOGY AGENCY, priority 2014, dated 2018).
Not every detail of the peptide structures is certain; ends, links or a residue may be inferred. Square brackets hold non-standard residues; d marks the D form. Peptide text beside a SMILES is read from it. * marks the point of attachment. X1 = C[n+]1c(-c2ccc3c(c2)CCCN3CCCCCC(=O)*)sc2cc(Br)ccc21; dBip = N[C@H](Cc1ccc(-c2ccccc2)cc1)C(=O)O

Test system: PC12 cells
Assay type: cell-based, rat
Conditions: Aβ final 10 μM, incubation for 2 days
Method: The solution was added at 50 μL/well to rat adrenal medulla-derived pheochromocytoma PC12 cells (purchased from RIKEN, Japan) inoculated to a poly-D-lysine-coated 96-well plate and similarly reacted. The reaction solution in each well was diluted with 50 μL of a Dulbecco's modified eagle's medium containing 0.1% horse serum (final concentration of Aβ: 10 μM) and then incubated at 37° C. for 48 hours in a 5% CO2 atmosphere. A live cell count measurement reagent SF containing WST-8 (10 μL; purchased from Nacalai Tesque, Inc.) was added to each well, and the mixture was incubated at 37° C. for 3 hours in a 5% CO2 atmosphere. Then, the cell viability was measured from absorbance at 450 nm (reference wavelength: 655 nm).

Question: For CC(C)C[C@@H](NC(=O)[C@@H](CCCCN)NC(=O)CCCCCN1CCCc2cc(-c3sc4cc(Br)ccc4[n+]3C)ccc21)C(=O)N[C@@H](C(=O)N[C@H](Cc1ccc(-c2ccccc2)cc1)C(=O)N[C@H](Cc1ccccc1)C(=O)O)C(C)C [1e] (X1-[dK][dL][dV][dBip][dF]-OH), which “cell viability in the presence of Aβ, light irradiation versus no light” value is on record?
Answer: significantly elevated the cell viability as compared with no light
